This passage reports binding results from publication doi:10.1101/2025.08.11.669663.

By UniProt entry, the sequences of proteins in these tests, tags left out.
UniProt P00441: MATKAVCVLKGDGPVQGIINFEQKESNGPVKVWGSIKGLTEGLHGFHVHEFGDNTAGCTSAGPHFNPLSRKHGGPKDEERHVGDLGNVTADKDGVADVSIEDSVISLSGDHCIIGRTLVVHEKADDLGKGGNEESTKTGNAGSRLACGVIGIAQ

No constants are given. Whether binding was seen depends on the method and setting. In cells and extracts the contact can be indirect. A yes stands for co-enrichment or nearness to the bait. Other partners may have been found.

To fix the notation:
T1: catalase (CAT) (human (endogenous in HeLa)) (UniProt P04040)
T1 sequence: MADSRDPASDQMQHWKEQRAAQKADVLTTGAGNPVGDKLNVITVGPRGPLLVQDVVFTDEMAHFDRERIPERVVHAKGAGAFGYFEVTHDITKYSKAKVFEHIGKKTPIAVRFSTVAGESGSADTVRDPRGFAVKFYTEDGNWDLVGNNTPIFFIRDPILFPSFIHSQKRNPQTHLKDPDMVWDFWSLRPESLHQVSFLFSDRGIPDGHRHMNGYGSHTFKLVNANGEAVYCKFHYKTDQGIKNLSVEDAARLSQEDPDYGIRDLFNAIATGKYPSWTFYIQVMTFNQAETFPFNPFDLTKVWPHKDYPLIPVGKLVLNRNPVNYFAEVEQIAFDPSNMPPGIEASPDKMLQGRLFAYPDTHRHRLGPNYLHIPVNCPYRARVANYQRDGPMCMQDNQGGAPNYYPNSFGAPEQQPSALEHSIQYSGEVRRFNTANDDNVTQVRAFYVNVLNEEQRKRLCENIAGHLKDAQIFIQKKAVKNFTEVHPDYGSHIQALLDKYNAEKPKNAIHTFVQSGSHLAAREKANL

T2: peroxiredoxin 2 (PRDX2) (human (endogenous in HeLa)) (UniProt P32119)
T2 sequence: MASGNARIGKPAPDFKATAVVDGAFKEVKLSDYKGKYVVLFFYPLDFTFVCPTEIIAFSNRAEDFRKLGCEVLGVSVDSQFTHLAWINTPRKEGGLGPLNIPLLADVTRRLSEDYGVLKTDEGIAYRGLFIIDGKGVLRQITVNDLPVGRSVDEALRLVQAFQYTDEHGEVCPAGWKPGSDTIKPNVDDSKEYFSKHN

T3: catalase (CAT) (human (endogenous in HeLa)), P04040
T3 chain: T1 sequence

B1: TXN (protein, UniProt P10599 1-105)
chain: MVKQIESKTAFQEALDAAGDKLVVVDFSATWCGPCKMIKPFFHSLSEKYSNVIFLEVDVDDCQDVASECEVKCMPTFQFFKKGQKVGEFSGANKEKLEATINELV
B2: PRDX6 (protein, UniProt P30041 1-224)
chain: MPGGLLLGDVAPNFEANTTVGRIRFHDFLGDSWGILFSHPRDFTPVCTTELGRAAKLAPEFAKRNVKLIALSIDSVEDHLAWSKDINAYNCEEPTEKLPFPIIDDRNRELAILLGMLDPAEKDEKGMPVTARVVFVFGPDKKLKLSILYPATTGRNFDEILRVVISLQLTAEKRVATPVDWKDGDSVMVLPTIPEEEAKKLFPKGVFTKELPSGKKYLRYTPQP
B3: PRDX4 (protein, UniProt Q13162 38-271)
chain: WETEERPRTREEECHFYAGGQVYPGEASRVSVADHSLHLSKAKISKPAPYWEGTAVIDGEFKELKLTDYRGKYLVFFFYPLDFTFVCPTEIIAFGDRLEEFRSINTEVVACSVDSQFTHLAWINTPRRQGGLGPIRIPLLSDLTHQISKDYGVYLEDSGHTLRGLFIIDDKGILRQITLNDLPVGRSVDETLRLVQAFQYTDKHGEVCPAGWKPGSETIIPDPAGKLKYFDKLN
B4: PRDX5 (protein, UniProt P30044 53-214)
chain: MAPIKVGDAIPAVEVFEGEPGNKVNLAELFKGKKGVLFGVPGAFTPGCSKTHLPGFVEQAEALKAKGVQVVACLSVNDAFVTGEWGRAHKAEGKVRLLADPTGAFGKETDLLLDDSLVSIFGNRRLKRFSMVVQDGIVKALNVEPDGTGLTCSLAPNIISQL
B5: GPX8 (protein, UniProt Q8TED1 1-209)
chain: MEPLAAYPLKCSGPRAKVFAVLLSIVLCTVTLFLLQLKFLKPKINSFYAFEVKDAKGRTVSLEKYKGKVSLVVNVASDCQLTDRNYLGLKELHKEFGPSHFSVLAFPCNQFGESEPRPSKEVESFARKNYGVTFPIFHKIKILGSEGEPAFRFLVDSSKKEPRWNFWKYLVNPEGQVVKFWKPEEPIEVIRPDIAALVRQVIIKKKEDL
B6: PRIM2 (a DNA primase subunit) (protein, UniProt P49643 1-509)
chain: MEFSGRKWRKLRLAGDQRNASYPHCLQFYLQPPSENISLIEFENLAIDRVKLLKSVENLGVSYVKGTEQYQSKLESELRKLKFSYRENLEDEYEPRRRDHISHFILRLAYCQSEELRRWFIQQEMDLLRFRFSILPKDKIQDFLKDSQLQFEAISDEEKTLREQEIVASSPSLSGLKLGFESIYKIPFADALDLFRGRKVYLEDGFAYVPLKDIVAIILNEFRAKLSKALALTARSLPAVQSDERLQPLLNHLSHSYTGQDYSTQGNVGKISLDQIDLLSTKSFPPCMRQLHKALRENHHLRHGGRMQYGLFLKGIGLTLEQALQFWKQEFIKGKMDPDKFDKGYSYNIRHSFGKEGKRTDYTPFSCLKIILSNPPSQGDYHGCPFRHSDPELLKQKLQSYKISPGGISQILDLVKGTHYQVACQKYFEMIHNVDDCGFSLNHPNQFFCESQRILNGGKDIKKEPIQPETPQPKPSVQKTKDASSALASLNSSLEMDMEGLEDYFSEDS
B7: peroxiredoxin 2 (PRDX2) (protein, UniProt P32119 1-198)
chain: T2 sequence
B8: MCM6 (protein, UniProt Q14566 1-821)
chain: MDLAAAAEPGAGSQHLEVRDEVAEKCQKLFLDFLEEFQSSDGEIKYLQLAEELIRPERNTLVVSFVDLEQFNQQLSTTIQEEFYRVYPYLCRALKTFVKDRKEIPLAKDFYVAFQDLPTRHKIRELTSSRIGLLTRISGQVVRTHPVHPELVSGTFLCLDCQTVIRDVEQQFKYTQPNICRNPVCANRRRFLLDTNKSRFVDFQKVRIQETQAELPRGSIPRSLEVILRAEAVESAQAGDKCDFTGTLIVVPDVSKLSTPGARAETNSRVSGVDGYETEGIRGLRALGVRDLSYRLVFLACCVAPTNPRFGGKELRDEEQTAESIKNQMTVKEWEKVFEMSQDKNLYHNLCTSLFPTIHGNDEVKRGVLLMLFGGVPKTTGEGTSLRGDINVCIVGDPSTAKSQFLKHVEEFSPRAVYTSGKASSAAGLTAAVVRDEESHEFVIEAGALMLADNGVCCIDEFDKMDVRDQVAIHEAMEQQTISITKAGVKATLNARTSILAAANPISGHYDRSKSLKQNINLSAPIMSRFDLFFILVDECNEVTDYAIARRIVDLHSRIEESIDRVYSLDDIRRYLLFARQFKPKISKESEDFIVEQYKHLRQRDGSGVTKSSWRITVRQLESMIRLSEAMARMHCCDEVQPKHVKEAFRLLNKSIIRVETPDVNLDQEEEIQMEVDEGAGGINGHADSPAPVNGINGYNEDINQESAPKASLRLGFSEYCRISNLIVLHLRKVEEEEDESALKRSELVNWYLKEIESEIDSEEELINKKRIIEKVIHRLTHYDHVLIELTQAGLKGSTEGSESYEEDPYLVVNPNYLLED
B9: MCM3 (protein, UniProt P25205 1-808)
chain: MAGTVVLDDVELREAQRDYLDFLDDEEDQGIYQSKVRELISDNQYRLIVNVNDLRRKNEKRANRLLNNAFEELVAFQRALKDFVASIDATYAKQYEEFYVGLEGSFGSKHVSPRTLTSCFLSCVVCVEGIVTKCSLVRPKVVRSVHYCPATKKTIERRYSDLTTLVAFPSSSVYPTKDEENNPLETEYGLSVYKDHQTITIQEMPEKAPAGQLPRSVDVILDDDLVDKAKPGDRVQVVGTYRCLPGKKGGYTSGTFRTVLIACNVKQMSKDAQPSFSAEDIAKIKKFSKTRSKDIFDQLAKSLAPSIHGHDYVKKAILCLLLGGVERDLENGSHIRGDINILLIGDPSVAKSQLLRYVLCTAPRAIPTTGRGSSGVGLTAAVTTDQETGERRLEAGAMVLADRGVVCIDEFDKMSDMDRTAIHEVMEQGRVTIAKAGIHARLNARCSVLAAANPVYGRYDQYKTPMENIGLQDSLLSRFDLLFIMLDQMDPEQDREISDHVLRMHRYRAPGEQDGDAMPLGSAVDILATDDPNFSQEDQQDTQIYEKHDNLLHGTKKKKEKMVSAAFMKKYIHVAKIIKPVLTQESATYIAEEYSRLRSQDSMSSDTARTSPVTARTLETLIRLATAHAKARMSKTVDLQDAEEAVELVQYAYFKKVLEKEKKRKKRSEDESETEDEEEKSQEDQEQKRKRRKTRQPDAKDGDSYDPYDFSDTEEEMPQVHTPKTADSQETKESQKVELSESRLKAFKVALLDVFREAHAQSIGMNRLTESINRDSEEPFSSVEIQAALSKMQDDNQVMVSEGIIFLI
B10: catalase (CAT) (protein, UniProt P04040 1-527)
chain: T1 sequence
B11: PRDX1 (protein, UniProt Q06830 1-199)
chain: MSSGNAKIGHPAPNFKATAVMPDGQFKDISLSDYKGKYVVFFFYPLDFTFVCPTEIIAFSDRAEEFKKLNCQVIGASVDSHFCHLAWVNTPKKQGGLGPMNIPLVSDPKRTIAQDYGVLKADEGISFRGLFIIDDKGILRQITVNDLPVGRSVDETLRLVQAFQFTDKHGEVCPAGWKPGSDTIKPDVQKSKEYFSKQK
B12: PRDX1, Q06830 1-199 (protein)
chain: B11 chain

For one test, the target named is T1, catalase (CAT) (human (endogenous in HeLa)). The experiment in a line: affinity purification with mass spectrometry.
Conditions: not given
B1: the binding result was “binds”.
Regarding B2, the binding entry is on record as “binds”.
On the same count and under the same terms, under B3 stands “binds”; under B4, “binds”.
Same read-out and setting: under B5 stands “binds”; under B6, “binds”; under B7, “binds”.

In the next test the target is T2, peroxiredoxin 2 (PRDX2) (human (endogenous in HeLa)). The experiment in a line: affinity purification with mass spectrometry.
Conditions: not given
In the case of B1, the binding result is reported as “binds”.
On to B2, for which the binding entry is “binds”.
The same measure, in the same setting: for B3 the value was “binds”; for B4, “binds”.
The same measure, in the same setting: for B5 the value was “binds”; for B8, “binds”.
With B6, the binding entry is “binds”.
The same measure, in the same setting: for B9 the value was “binds”.

The next test addresses Cu/Zn superoxide dismutase (SOD1) (human (endogenous in HeLa)) (UniProt P00441). The experiment in a line: affinity purification with mass spectrometry.
Conditions: not given
B1: the binding result is listed as “binds”.
Take B10: the binding entry was “binds”.
The same measure, in the same setting: for B2 the value was “binds”; for B3, “binds”.
The same measure, in the same setting: under B5 stands “binds”.
In the case of B8, the binding entry was “binds”.
Same read-out and setting: under B6 stands “binds”; under B9, “binds”.
Same read-out and setting: under B11 stands “binds”; under B7, “binds”.

The target of another test is T3, catalase (CAT) (human (endogenous in …)). The experiment in a line: affinity purification with mass spectrometry. As to conditions: remark: other sources report otherwise.
In the case of B12, the binding entry is listed as “binds”.
